Earlier results, collected in patent US20220339103A1, “Lung-targeted corticosteroid treatment in viral respiratory disease, COVID-19 and ARDS (acute respiratory distress syndrome)” (Bodor Laboratories, Inc., priority 2021, published 2022).
At least one structure is not confirmed: it was looked up by name or label, or the drawing left a doubt.

Test system: ARDS

C[C@@H]1C[C@H]2[C@@H]3CCC4=CC(=O)C=C[C@]4(C)[C@@]3(F)[C@@H](O)C[C@]2(C)[C@@]1(O)C(=O)CO [dexamethasone]
decrease of all cause mortality (277 pre-pandemic ARDS patients): 15%
60-day all-cause mortality (high-dose dexamethasone, moderate to severe ARDS, vs 36%, P=0.005): 21%
